Measurements published in patent publication US20110150895A1 (SAMSUNG ELECTRONICS, published 2011).
These are yes or no findings as the source states them, for the method shown. Some results given as binding are weak or reduced against the parent protein; the word gives no strength. Blank lines part the entries; values can stand above or below the binder they belong to.

Chains of the proteins cited; added tags and fusions are not shown. Residues count along the entry.
UniProt O15123, residues 19-496: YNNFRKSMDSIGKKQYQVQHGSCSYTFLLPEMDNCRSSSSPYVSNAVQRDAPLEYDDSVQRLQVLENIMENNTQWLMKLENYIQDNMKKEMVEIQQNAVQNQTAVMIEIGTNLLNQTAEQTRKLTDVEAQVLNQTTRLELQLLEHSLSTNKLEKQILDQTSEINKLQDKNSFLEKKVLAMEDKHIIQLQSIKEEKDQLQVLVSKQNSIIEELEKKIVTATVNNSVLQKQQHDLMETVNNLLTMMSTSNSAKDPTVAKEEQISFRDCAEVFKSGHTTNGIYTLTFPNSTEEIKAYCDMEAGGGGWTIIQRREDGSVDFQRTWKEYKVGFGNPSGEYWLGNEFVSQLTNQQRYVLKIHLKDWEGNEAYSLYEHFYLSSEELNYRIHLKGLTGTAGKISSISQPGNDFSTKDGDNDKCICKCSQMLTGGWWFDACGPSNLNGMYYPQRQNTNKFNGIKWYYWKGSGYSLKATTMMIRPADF

Biological target: angiopoietin-2 (antigen coated in the hybridoma screening ELISA) (UniProt O15123)
Assay: ELISA on coated angiopoietin-2, hybridoma culture, anti-mouse IgG-HRP

- binding: binds
B1: Monoclonal antibody SAIT-Ang-2-6 (antibody, V domains shown)
VH: QVQLQQPGSELVRPGTSVKLSCKASGYTFTNYLMHWVKQRPGQGLEWIGNIYPGSGATNYDEKFKSKATLTVDISSSTAYMQLISLTSEDSAVYYCTRDDYDGSWFAYWGQGTLVTVSA
VL: DIVMTQSPSSLSVSAGEKVTMTCKSSQSLLISGNQKNFLAWYQQKPGQPPKLLIYGASTRDSGVPDRFTGSGSGTDFTLTISSVQAEDLAVYYCQNDHSYPLTFGTGTKLELK
notes: also called antibody of hybridoma KCLRF-BP-00222

- binding: binds
B2: Monoclonal antibody SAIT-Ang-2-5 (antibody, V domains shown)
VH: DVQLVESGGGLAQPGGSRKLSCAASGFTFSNFGMHWVRQAPEKGLDWVAYISSGSDTIYYADTVKGRFTISRDNPKNTLFLQMTSLRSEDTAMYYCARESTMITMGYVLDYWGQGTSVTVSS
VL: DIQMTQSPASQSASLGESVTITCLASQTIGTWLAWYQQKPGKSPQLLIYAATSLADGVPSRFSGSGSGTKFSLKISSLQAEDFVSYYCQQLYSIPLTIGAGTKLELK
notes: also called antibody of hybridoma KCLRF-BP-00221
